Experimental data as given in the supplement of paper PMC8728848.
Some of the results follow.

What was measured:
Test in all cases: glycan array binding signal (z-score within array); higher = stronger binding
Conditions in all cases: glycan notation: IUPAC condensed, linker removed
[1] = biological target: Neu5Ac(a2-3)GalNAc
How it was run: (§1)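 The Consortium for Functional Glycomics database supplied 3228 glycan arrays, of which those lacking an available protein sequence were dropped. The binding signal, a within-array Z-score, was averaged across arrays of the same protein sequence and across linkers. Negative scores can be read as non-binding.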

[2] = biological target: Neu5Ac(a2-3)GalNAc(b1-4)GlcNAc
How it was run: as §1

[3] = biological target: Neu5Ac(a2-3)[GalNAc(b1-4)]Gal(b1-4)Glc
How it was run: as §1

[4] = biological target: Neu5Ac(a2-3)[GalNAc(b1-4)]Gal(b1-4)GlcNAc
How it was run: as §1

[5] = biological target: Neu5Ac(a2-3)[GalNAc(b1-4)]Gal(b1-4)GlcNAc(b1-3)GalNAc
How it was run: as §1

[6] = biological target: Neu5Ac(a2-3)[Neu5Ac(a2-6)]GalNAc
How it was run: as §1

[7] = biological target: Neu5Ac(a2-6)Gal
How it was run: as §1

[8] = biological target: Neu5Ac(a2-6)Gal(b1-3)GlcNAc(b1-3)[Gal(b1-4)GlcNAc(b1-6)]Gal(b1-4)Glc
How it was run: as §1

[9] = biological target: Neu5Ac(a2-6)Gal(b1-4)Glc
How it was run: as §1

[10] = biological target: Neu5Ac(a2-6)Gal(b1-4)GlcNAc
How it was run: as §1

[11] = biological target: Neu5Ac(a2-6)Gal(b1-4)GlcNAc(b1-2)Man
How it was run: as §1

[12] = biological target: Neu5Ac(a2-6)Gal(b1-4)GlcNAc(b1-2)Man(a1-3)Man(b1-4)GlcNAc(b1-4)GlcNAc
How it was run: as §1

[13] = biological target: Neu5Ac(a2-6)Gal(b1-4)GlcNAc(b1-2)Man(a1-3)[Gal(b1-4)GlcNAc(b1-2)Man(a1-6)]Man(b1-4)GlcNAc(b1-4)GlcNAc
How it was run: as §1

[14] = biological target: Neu5Ac(a2-6)Gal(b1-4)GlcNAc(b1-2)Man(a1-3)[GlcNAc(b1-2)Man(a1-6)]Man(b1-4)GlcNAc(b1-4)GlcNAc
How it was run: as §1

[15] = biological target: Neu5Ac(a2-6)Gal(b1-4)GlcNAc(b1-2)Man(a1-3)[GlcNAc(b1-4)][Neu5Ac(a2-6)Gal(b1-4)GlcNAc(b1-2)Man(a1-6)]Man(b1-4)GlcNAc(b1-4)GlcNAc
How it was run: as §1

[16] = biological target: Neu5Ac(a2-6)Gal(b1-4)GlcNAc(b1-2)Man(a1-3)[Man(a1-6)]Man(b1-4)GlcNAc(b1-4)GlcNAc
How it was run: as §1

[17] = biological target: Neu5Ac(a2-6)Gal(b1-4)GlcNAc(b1-2)Man(a1-3)[Neu5Ac(a2-3)Gal(b1-4)GlcNAc(b1-2)Man(a1-6)]Man(b1-4)GlcNAc(b1-4)GlcNAc
How it was run: as §1

[18] = biological target: Neu5Ac(a2-6)Gal(b1-4)GlcNAc(b1-2)Man(a1-3)[Neu5Ac(a2-6)Gal(b1-4)GlcNAc(b1-2)Man(a1-6)]Man(b1-4)GlcNAc(b1-4)GlcNAc
How it was run: as §1

[19] = biological target: Neu5Ac(a2-6)Gal(b1-4)GlcNAc(b1-2)Man(a1-3)[Neu5Ac(a2-6)Gal(b1-4)GlcNAc(b1-2)Man(a1-6)]Man(b1-4)GlcNAc(b1-4)[Fuc(a1-6)]GlcNAc
How it was run: as §1

[20] = biological target: Neu5Ac(a2-6)Gal(b1-4)GlcNAc(b1-2)Man(a1-6)Man(b1-4)GlcNAc(b1-4)GlcNAc
How it was run: as §1

[21] = biological target: Neu5Ac(a2-6)Gal(b1-4)GlcNAc(b1-2)Man(a1-6)[Gal(b1-4)GlcNAc(b1-2)Man(a1-3)]Man(b1-4)GlcNAc(b1-4)GlcNAc
How it was run: as §1

[22] = biological target: Neu5Ac(a2-6)Gal(b1-4)GlcNAc(b1-2)Man(a1-6)[GlcNAc(b1-2)Man(a1-3)]Man(b1-4)GlcNAc(b1-4)GlcNAc
How it was run: as §1

[23] = biological target: Neu5Ac(a2-6)Gal(b1-4)GlcNAc(b1-2)Man(a1-6)[Man(a1-3)]Man(b1-4)GlcNAc(b1-4)GlcNAc
How it was run: as §1

[24] = biological target: Neu5Ac(a2-6)Gal(b1-4)GlcNAc(b1-2)[Neu5Ac(a2-6)Gal(b1-4)GlcNAc(b1-4)]Man(a1-3)[GlcNAc(b1-4)][Neu5Ac(a2-6)Gal(b1-4)GlcNAc(b1-2)[Neu5Ac(a2-6)Gal(b1-4)GlcNAc(b1-6)]Man(a1-6)]Man(b1-4)GlcNAc(b1-4)GlcNAc
How it was run: as §1

[25] = biological target: Neu5Ac(a2-6)Gal(b1-4)GlcNAc(b1-2)[Neu5Ac(a2-6)Gal(b1-4)GlcNAc(b1-4)]Man(a1-3)[GlcNAc(b1-4)][Neu5Ac(a2-6)Gal(b1-4)GlcNAc(b1-4)Man(a1-6)]Man(b1-4)GlcNAc(b1-4)GlcNAc
How it was run: as §1

[26] = biological target: Neu5Ac(a2-6)Gal(b1-4)GlcNAc(b1-2)[Neu5Ac(a2-6)Gal(b1-4)GlcNAc(b1-6)]Man(a1-6)[Neu5Ac(a2-6)Gal(b1-4)GlcNAc(b1-2)Man(a1-3)][GlcNAc(b1-4)]Man(b1-4)GlcNAc(b1-4)GlcNAc
How it was run: as §1

[27] = biological target: Neu5Ac(a2-6)Gal(b1-4)GlcNAc(b1-3)Gal(b1-3)GlcNAc
How it was run: as §1

[28] = biological target: Neu5Ac(a2-6)Gal(b1-4)GlcNAc(b1-3)Gal(b1-4)GlcNAc
How it was run: as §1

[29] = biological target: Neu5Ac(a2-6)Gal(b1-4)GlcNAc(b1-3)Gal(b1-4)GlcNAc(b1-2)Man(a1-3)[Neu5Ac(a2-6)Gal(b1-4)GlcNAc(b1-3)Gal(b1-4)GlcNAc(b1-2)Man(a1-6)]GalNAc
How it was run: as §1

[30] = biological target: Neu5Ac(a2-6)Gal(b1-4)GlcNAc(b1-3)Gal(b1-4)GlcNAc(b1-3)Gal(b1-4)GlcNAc
How it was run: as §1

[31] = biological target: Neu5Ac(a2-6)Gal(b1-4)GlcNAc(b1-3)Gal(b1-4)GlcNAc(b1-3)Gal(b1-4)GlcNAc(b1-2)Man(a1-3)[Neu5Ac(a2-6)Gal(b1-4)GlcNAc(b1-3)Gal(b1-4)GlcNAc(b1-3)Gal(b1-4)GlcNAc(b1-2)Man(a1-6)]GalNAc
How it was run: as §1

[32] = biological target: Neu5Ac(a2-6)Gal(b1-4)GlcNAc(b1-3)Gal(b1-4)GlcNAc(b1-3)GalNAc
How it was run: as §1

[33] = biological target: Neu5Ac(a2-6)Gal(b1-4)GlcNAc(b1-3)Gal(b1-4)GlcNAc(b1-3)[Neu5Ac(a2-6)Gal(b1-4)GlcNAc(b1-3)Gal(b1-4)GlcNAc(b1-6)]GalNAc
How it was run: as §1

[34] = biological target: Neu5Ac(a2-6)Gal(b1-4)GlcNAc(b1-3)Gal(b1-4)GlcNAc(b1-6)[Gal(b1-3)]GalNAc
How it was run: as §1

[35] = biological target: Neu5Ac(a2-6)Gal(b1-4)GlcNAc(b1-3)Gal(b1-4)[Fuc(a1-3)]GlcNAc(b1-3)Gal(b1-4)[Fuc(a1-3)]GlcNAc
How it was run: as §1

[36] = biological target: Neu5Ac(a2-6)Gal(b1-4)GlcNAc(b1-3)GalNAc
How it was run: as §1

[37] = biological target: Neu5Ac(a2-6)Gal(b1-4)GlcNAc(b1-3)[Neu5Ac(a2-6)Gal(b1-4)GlcNAc(b1-6)]GalNAc
How it was run: as §1

B1: Nc3LysM-2 (protein)
chain: AHVLQARQSVSCDFATAANTGDTCASFAAAWGITEAAFAKLNPGVSCPGNLIAGSEYCVIGTVSTGAPTTTKAATTSTTPPTTTTTTKATTLSTSTTSVSPTGPSPQMPSITSTCNKFYQVQSGDGCWSIEQAQGVSASDFMAWNKAVDAQCDNLWLGYYVCVGVKGGSSPPPTTTTKPASSSAPTPQMPNTVSNCKKFHKVVSGDGCWAIEQAAGISASDFAKWNPYVDAACDNLWLGYYVCIGV
glycan array binding signal (z-score) [1]: -1.24 | glycan array binding signal (z-score) [2]: -0.744 | glycan array binding signal (z-score) [3]: -0.861 | glycan array binding signal (z-score) [4]: -0.72 | glycan array binding signal (z-score) [5]: -1.35 | glycan array binding signal (z-score) [6]: 0.668 | glycan array binding signal (z-score) [7]: -0.616 | glycan array binding signal (z-score) [8]: -0.641 | glycan array binding signal (z-score) [9]: 0.285 | glycan array binding signal (z-score) [10]: 0.375 | glycan array binding signal (z-score) [11]: 0.422 | glycan array binding signal (z-score) [12]: -0.859 | glycan array binding signal (z-score) [13]: -0.256 | glycan array binding signal (z-score) [14]: -0.828 | glycan array binding signal (z-score) [15]: -1.03 | glycan array binding signal (z-score) [16]: -0.757 | glycan array binding signal (z-score) [17]: 0.414 | glycan array binding signal (z-score) [18]: -0.134 | glycan array binding signal (z-score) [19]: 1.3 | glycan array binding signal (z-score) [20]: -0.028 | glycan array binding signal (z-score) [21]: -0.149 | glycan array binding signal (z-score) [22]: -0.732 | glycan array binding signal (z-score) [23]: -0.459 | glycan array binding signal (z-score) [24]: -0.128 | glycan array binding signal (z-score) [25]: -0.677 | glycan array binding signal (z-score) [26]: 1.41 | glycan array binding signal (z-score) [27]: -1.05 | glycan array binding signal (z-score) [28]: -1.51 | glycan array binding signal (z-score) [29]: -0.296 | glycan array binding signal (z-score) [30]: 1.61 | glycan array binding signal (z-score) [31]: 0.389 | glycan array binding signal (z-score) [32]: -0.847 | glycan array binding signal (z-score) [33]: -0.229 | glycan array binding signal (z-score) [34]: -0.099 | glycan array binding signal (z-score) [35]: 0.118 | glycan array binding signal (z-score) [36]: -0.233 | glycan array binding signal (z-score) [37]: -0.555
